Experimental data taken from the supplement of paper PMC10849652.
This is one part of the list.

By UniProt entry, the sequences of proteins in these tests, tags left out. Where a name states a change or a piece, a line headed by the entry shows the natural chain unless it says otherwise.
UniProt Q9BQG0: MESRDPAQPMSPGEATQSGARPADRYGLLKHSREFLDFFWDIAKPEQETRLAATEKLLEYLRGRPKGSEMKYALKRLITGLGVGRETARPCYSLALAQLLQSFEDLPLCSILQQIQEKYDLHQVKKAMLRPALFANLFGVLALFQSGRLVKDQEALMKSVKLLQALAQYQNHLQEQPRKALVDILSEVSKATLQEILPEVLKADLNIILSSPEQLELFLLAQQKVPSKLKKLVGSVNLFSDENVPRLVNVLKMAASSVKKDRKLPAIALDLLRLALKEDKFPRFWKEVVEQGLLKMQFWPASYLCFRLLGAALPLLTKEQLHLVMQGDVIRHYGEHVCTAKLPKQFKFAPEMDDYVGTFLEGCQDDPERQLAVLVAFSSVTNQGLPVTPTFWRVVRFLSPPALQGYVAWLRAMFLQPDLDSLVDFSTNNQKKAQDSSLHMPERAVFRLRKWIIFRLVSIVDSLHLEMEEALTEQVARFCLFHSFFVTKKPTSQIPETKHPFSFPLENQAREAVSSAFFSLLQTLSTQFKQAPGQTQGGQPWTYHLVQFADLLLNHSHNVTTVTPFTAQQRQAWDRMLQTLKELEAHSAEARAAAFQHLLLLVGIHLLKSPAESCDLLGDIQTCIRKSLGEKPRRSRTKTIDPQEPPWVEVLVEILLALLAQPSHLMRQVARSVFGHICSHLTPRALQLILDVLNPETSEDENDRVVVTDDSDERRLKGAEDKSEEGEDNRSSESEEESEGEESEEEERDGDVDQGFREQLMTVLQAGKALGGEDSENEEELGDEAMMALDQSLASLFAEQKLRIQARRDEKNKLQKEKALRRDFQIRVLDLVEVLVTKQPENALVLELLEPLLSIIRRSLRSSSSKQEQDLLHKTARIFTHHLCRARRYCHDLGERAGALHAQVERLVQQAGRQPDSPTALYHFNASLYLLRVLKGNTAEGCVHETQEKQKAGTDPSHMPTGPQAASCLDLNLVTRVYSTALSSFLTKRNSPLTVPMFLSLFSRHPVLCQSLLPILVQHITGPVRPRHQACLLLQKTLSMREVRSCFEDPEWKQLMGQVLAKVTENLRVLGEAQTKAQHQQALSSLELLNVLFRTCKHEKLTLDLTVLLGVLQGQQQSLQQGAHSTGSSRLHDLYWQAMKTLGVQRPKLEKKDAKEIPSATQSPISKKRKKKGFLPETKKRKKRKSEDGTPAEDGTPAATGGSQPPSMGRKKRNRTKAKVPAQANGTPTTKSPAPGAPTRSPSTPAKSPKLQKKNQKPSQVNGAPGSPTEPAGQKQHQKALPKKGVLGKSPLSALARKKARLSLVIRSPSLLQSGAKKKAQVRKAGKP
UniProt Q86UE4: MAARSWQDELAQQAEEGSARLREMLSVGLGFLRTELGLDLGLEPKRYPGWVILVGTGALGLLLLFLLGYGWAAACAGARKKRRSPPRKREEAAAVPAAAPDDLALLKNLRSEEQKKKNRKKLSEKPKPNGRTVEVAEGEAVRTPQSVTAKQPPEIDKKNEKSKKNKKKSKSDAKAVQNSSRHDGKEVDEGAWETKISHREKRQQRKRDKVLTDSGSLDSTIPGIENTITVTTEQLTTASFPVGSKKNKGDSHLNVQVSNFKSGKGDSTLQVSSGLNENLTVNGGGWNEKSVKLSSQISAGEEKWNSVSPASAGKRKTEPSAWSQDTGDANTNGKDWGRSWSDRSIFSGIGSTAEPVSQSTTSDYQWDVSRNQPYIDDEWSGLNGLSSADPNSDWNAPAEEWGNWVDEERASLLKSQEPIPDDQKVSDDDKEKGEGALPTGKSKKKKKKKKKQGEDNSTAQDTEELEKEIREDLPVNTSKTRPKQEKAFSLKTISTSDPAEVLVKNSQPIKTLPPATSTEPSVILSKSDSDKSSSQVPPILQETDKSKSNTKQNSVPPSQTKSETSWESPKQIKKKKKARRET
UniProt Q969V5: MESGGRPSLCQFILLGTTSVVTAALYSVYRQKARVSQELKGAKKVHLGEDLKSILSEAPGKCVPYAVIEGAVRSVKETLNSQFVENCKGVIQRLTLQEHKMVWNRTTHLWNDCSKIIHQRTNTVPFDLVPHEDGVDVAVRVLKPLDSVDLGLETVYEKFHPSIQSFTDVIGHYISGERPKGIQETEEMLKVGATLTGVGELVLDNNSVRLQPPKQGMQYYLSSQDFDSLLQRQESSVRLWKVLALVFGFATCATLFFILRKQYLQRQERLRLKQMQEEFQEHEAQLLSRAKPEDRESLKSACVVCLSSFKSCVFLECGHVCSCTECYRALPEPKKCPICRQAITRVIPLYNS
UniProt P35579, whole entry, looked up: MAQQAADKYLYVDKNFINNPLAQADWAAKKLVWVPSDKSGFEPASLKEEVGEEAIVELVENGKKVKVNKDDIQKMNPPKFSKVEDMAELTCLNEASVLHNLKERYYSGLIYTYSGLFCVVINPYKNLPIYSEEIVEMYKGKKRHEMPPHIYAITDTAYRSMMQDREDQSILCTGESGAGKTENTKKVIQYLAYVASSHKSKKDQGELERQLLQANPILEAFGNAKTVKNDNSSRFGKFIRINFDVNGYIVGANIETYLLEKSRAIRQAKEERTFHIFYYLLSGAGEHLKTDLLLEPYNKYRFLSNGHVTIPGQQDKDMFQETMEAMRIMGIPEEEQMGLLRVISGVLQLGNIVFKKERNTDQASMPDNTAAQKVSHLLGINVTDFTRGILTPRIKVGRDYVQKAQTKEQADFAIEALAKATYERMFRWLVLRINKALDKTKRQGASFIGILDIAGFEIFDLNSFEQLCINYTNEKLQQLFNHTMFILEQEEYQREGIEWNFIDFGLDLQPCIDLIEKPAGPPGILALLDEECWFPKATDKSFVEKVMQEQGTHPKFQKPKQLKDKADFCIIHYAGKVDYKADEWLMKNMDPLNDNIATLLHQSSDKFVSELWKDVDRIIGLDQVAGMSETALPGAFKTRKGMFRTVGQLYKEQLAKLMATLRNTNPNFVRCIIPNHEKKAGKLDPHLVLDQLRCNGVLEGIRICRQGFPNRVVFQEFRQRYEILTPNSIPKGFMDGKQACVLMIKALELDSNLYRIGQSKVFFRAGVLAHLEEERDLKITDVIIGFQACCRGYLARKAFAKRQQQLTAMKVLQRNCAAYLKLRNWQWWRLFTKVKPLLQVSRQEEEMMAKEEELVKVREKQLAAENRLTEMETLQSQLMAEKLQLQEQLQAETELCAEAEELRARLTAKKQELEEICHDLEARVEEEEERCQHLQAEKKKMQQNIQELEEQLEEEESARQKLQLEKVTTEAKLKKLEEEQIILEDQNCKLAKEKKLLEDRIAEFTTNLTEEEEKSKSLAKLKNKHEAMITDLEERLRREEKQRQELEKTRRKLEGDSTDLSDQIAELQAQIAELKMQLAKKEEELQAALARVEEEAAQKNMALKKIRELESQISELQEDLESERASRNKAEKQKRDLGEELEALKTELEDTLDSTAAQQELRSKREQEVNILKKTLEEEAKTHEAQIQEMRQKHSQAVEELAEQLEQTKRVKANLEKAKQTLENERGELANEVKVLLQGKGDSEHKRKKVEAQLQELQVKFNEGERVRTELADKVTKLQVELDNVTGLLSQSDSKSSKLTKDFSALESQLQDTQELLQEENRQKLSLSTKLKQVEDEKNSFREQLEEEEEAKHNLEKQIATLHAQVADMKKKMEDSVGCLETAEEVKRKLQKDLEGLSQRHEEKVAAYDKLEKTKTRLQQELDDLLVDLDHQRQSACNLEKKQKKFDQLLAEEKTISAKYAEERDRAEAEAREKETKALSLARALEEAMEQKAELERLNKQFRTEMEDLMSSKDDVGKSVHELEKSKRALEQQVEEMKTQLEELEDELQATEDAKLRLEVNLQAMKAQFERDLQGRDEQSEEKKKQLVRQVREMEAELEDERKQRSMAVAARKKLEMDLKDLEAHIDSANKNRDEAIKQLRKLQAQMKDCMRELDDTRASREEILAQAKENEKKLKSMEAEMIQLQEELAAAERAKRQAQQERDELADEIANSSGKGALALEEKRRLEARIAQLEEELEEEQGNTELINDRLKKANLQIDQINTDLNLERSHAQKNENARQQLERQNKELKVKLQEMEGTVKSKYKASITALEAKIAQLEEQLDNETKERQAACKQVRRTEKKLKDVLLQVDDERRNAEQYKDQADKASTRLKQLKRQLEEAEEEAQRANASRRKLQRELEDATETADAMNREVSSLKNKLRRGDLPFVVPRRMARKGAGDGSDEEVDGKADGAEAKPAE
UniProt Q15390: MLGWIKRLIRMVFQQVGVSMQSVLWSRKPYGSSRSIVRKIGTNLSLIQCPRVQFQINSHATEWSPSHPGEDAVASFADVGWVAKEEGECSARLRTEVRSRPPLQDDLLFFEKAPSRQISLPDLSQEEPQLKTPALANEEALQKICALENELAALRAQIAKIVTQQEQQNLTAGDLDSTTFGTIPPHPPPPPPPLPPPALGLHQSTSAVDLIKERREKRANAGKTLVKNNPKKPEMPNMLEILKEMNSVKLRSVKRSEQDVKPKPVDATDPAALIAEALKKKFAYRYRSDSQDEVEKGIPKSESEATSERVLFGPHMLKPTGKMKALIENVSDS
UniProt O00159, whole entry, looked up: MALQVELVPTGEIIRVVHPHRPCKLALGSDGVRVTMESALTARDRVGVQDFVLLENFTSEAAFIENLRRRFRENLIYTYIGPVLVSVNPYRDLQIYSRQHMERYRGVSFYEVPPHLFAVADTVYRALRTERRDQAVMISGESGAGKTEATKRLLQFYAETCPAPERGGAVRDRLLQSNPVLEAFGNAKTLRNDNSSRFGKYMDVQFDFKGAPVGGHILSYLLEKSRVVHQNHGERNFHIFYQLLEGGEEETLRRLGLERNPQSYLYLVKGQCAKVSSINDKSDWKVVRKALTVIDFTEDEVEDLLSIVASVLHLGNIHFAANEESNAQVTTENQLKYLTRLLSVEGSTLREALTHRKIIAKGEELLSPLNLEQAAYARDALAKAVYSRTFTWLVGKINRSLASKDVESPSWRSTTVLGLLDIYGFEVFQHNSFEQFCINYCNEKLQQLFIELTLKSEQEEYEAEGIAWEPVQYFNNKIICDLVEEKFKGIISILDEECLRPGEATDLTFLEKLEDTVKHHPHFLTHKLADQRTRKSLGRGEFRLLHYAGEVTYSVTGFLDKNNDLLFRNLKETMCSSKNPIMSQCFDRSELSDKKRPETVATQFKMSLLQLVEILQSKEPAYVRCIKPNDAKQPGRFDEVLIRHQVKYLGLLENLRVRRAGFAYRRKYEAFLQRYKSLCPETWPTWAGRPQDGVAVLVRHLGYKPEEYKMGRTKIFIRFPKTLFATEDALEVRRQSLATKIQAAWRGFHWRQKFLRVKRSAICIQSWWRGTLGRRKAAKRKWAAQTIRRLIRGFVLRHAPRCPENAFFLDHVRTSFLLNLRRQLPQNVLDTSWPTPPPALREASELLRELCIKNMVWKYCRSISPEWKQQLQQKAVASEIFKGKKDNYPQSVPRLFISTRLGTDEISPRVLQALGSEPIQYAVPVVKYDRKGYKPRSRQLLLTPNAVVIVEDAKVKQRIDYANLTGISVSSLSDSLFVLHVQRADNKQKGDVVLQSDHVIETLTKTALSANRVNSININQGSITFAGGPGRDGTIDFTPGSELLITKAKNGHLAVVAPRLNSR
UniProt P82909: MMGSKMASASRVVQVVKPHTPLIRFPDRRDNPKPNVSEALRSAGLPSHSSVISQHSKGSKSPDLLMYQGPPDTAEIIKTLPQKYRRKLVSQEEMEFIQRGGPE
UniProt O14950, whole entry, looked up: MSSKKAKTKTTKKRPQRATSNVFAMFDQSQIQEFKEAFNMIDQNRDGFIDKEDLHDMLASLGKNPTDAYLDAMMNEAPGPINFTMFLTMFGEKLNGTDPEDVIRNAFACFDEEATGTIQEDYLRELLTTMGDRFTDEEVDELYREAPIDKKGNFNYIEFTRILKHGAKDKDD
UniProt Q8NCE2: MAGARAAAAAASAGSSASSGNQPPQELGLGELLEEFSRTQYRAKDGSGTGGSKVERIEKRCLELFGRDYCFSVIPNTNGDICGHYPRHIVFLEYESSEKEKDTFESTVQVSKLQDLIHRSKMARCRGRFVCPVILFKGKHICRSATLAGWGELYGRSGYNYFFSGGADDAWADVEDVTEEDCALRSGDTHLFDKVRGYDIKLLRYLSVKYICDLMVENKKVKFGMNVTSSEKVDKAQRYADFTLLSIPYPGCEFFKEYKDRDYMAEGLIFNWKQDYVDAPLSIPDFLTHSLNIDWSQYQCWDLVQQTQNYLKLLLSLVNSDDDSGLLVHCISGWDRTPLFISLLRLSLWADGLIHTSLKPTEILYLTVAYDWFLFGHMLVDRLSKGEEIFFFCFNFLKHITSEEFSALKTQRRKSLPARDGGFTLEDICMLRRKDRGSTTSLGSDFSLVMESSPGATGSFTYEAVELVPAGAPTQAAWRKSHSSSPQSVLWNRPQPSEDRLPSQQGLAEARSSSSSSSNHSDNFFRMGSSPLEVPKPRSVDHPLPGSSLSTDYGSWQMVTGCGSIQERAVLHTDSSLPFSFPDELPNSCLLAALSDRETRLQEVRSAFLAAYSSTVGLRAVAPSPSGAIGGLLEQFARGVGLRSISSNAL

How the values were obtained:
Test in all cases: log2 fold change, soluble protein after heating vs DMSO (PISA); higher = thermal stabilisation; K562 cells, 10 uM, 30 min; active = over 0.2 and 3.5 SD of the protein, either way, in both replicates (recomputed)
erlotinib = compound: C#Cc1cccc(Nc2ncnc3cc(OCCOC)c(OCCOC)cc23)c1 [erlotinib]
Procedure, shortened: (§1)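 Aliquots of K562 cells (2×10^6 cells/mL) treated with 10 μM compound for 30 min were heated for 3 min over 48°C-58°C. After pooling and extraction in PBS with 0.5% NP-40 at 4°C, soluble protein from a 21,000xg, 90 min spin was quantified by TMTpro 16plex LC-MS/MS with channel sums equalised. Thermal stability is expressed against control samples, from duplicates, as a log2 fold change.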

[1] = compound: C/C(=N\NC(=O)C1=CC(=CC=C1)S(=O)(=O)N2CCOCC2)/C3=C(C=CC(=C3)Cl)O
Procedure, shortened: as §1

[2] = compound: C1=CC(=C(C=C1Cl)C2=NC3=NC=CN=C3C(=N2)NC4=CC=NC=C4)F
Procedure, shortened: as §1

[3] = compound: C1=CC(=CC=C1C2=NC3=C(N2)C=C(C=C3)C(=O)N)OC4=CC=C(C=C4)Cl
Procedure, shortened: as §1

[4] = compound: C1=CC2=C(C=CC(=C2)/C=C\3/C(=O)NC(=NCC4=CC=CS4)S3)N=C1
Procedure, shortened: as §1

[5] = compound: C1=CC2=NC=CN=C2C=C1/C=C/3\C(=O)NC(=O)S3
Procedure, shortened: as §1

[6] = compound: C1=CC=C(C=C1)C2=NC(=C(N2)C3=CC=NC=C3)C4=CC(=C(C=C4)Cl)O
Procedure, shortened: as §1

[7] = compound: C1=CC=C2C(=C1)C3=NNC4=CC=CC(=C43)C2=O
Procedure, shortened: as §1

[8] = compound: C1CCN(C1)C(=O)NC2=CC=CC(=C2)NC3=NC=C(C(=N3)NCCC4=CN=CN4)Br
Procedure, shortened: as §1

[9] = compound: C1CN(CCC1(CC2=CC=C(C=C2)Cl)N)C3=NC=NC4=C3C=CN4
Procedure, shortened: as §1

Measured: log2 fold change

MRPS2 (UniProt Q9Y399)
inactive: erlotinib 0.004 | [1] -0.064 | [2] -0.083 | [3] 0.052 | [4] 0.093 | [5] 0.01 | [6] 0.083 | [7] -0.033 | [8] -0.01 | [9] -0.112

MRPS5 (UniProt P82675)
inactive: erlotinib -0.077 | [1] 0.038 | [2] 0.009 | [3] 0.193 | [4] 0.007 | [5] -0.008 | [6] 0.027 | [7] 0.158 | [8] -0.035 | [9] -0.085

MYBBP1A isoform 2 (UniProt Q9BQG0)
inactive: erlotinib -0.056 | [1] 0.017 | [2] -0.446 | [3] 0.025 | [4] 0.108 | [5] 0.112 | [6] -0.169 | [7] -0.07 | [8] -0.001 | [9] -0.464

MTHFS (UniProt P49914)
inactive: erlotinib 0.01 | [1] 0.062 | [2] 0.055 | [3] -0.003 | [4] 0.034 | [5] -0.024 | [6] 0.026 | [7] 0.083 | [8] -0.014 | [9] -0.12

MTOR (UniProt P42345)
inactive: erlotinib 0.015 | [1] 0.041 | [2] 0.021 | [3] -0.011 | [4] 0.036 | [5] 0.047 | [6] 0.034 | [7] -0.004 | [8] 0.065 | [9] -0.03

MTDH (UniProt Q86UE4)
inactive: erlotinib -0.128 | [1] -0.164 | [2] -0.487 | [3] -0.015 | [4] -0.103 | [5] -0.005 | [6] -0.145 | [7] -0.058 | [8] 0.05 | [9] -0.118

MTREX (UniProt P42285)
inactive: erlotinib -0.015 | [1] 0.045 | [2] 0.035 | [3] 0.023 | [4] -0.001 | [5] 0.027 | [6] 0.007 | [7] 0.018 | [8] 0.011 | [9] 0

MUL1 (UniProt Q969V5)
inactive: erlotinib 0.015 | [1] 0.038 | [2] 0.073 | [3] -0.004 | [4] 0.026 | [5] 0.069 | [6] 0.095 | [7] 0.034 | [8] -0.025 | [9] 0.005

MYH9 (UniProt P35579)
inactive: erlotinib 0.005 | [1] 0.051 | [2] 0.072 | [3] 0.016 | [4] -0.017 | [5] 0.015 | [6] 0.046 | [7] 0.053 | [8] -0.027 | [9] 0.019

MTFR1 (UniProt Q15390)
inactive: erlotinib 0.034 | [1] -0.004 | [2] 0.029 | [3] 0.049 | [4] 0.008 | [5] 0.002 | [6] 0.024 | [7] 0.028 | [8] 0.069 | [9] 0.074

MYO1C (UniProt O00159)
inactive: erlotinib 0.015 | [1] -0.02 | [2] -0.19 | [3] -0.047 | [4] 0.054 | [5] 0.041 | [6] -0.014 | [7] -0.049 | [8] 0.023 | [9] 0.072

MSH3 (UniProt P20585)
inactive: erlotinib 0.009 | [1] 0.031 | [2] 0.068 | [3] 0.017 | [4] 0.017 | [5] 0.03 | [6] 0.004 | [7] -0.039 | [8] 0.008 | [9] -0.045

MTHFR isoform 2 (UniProt P42898)
inactive: erlotinib 0.021 | [1] 0.042 | [2] 0.081 | [3] 0.018 | [4] 0.053 | [5] 0.01 | [6] 0.001 | [7] 0.048 | [8] 0.039 | [9] 0.046

MTMR6 (UniProt Q9Y217)
inactive: erlotinib 0.033 | [1] 0.157 | [2] 0.056 | [3] -0.055 | [4] -0.003 | [5] -0.049 | [6] -0.021 | [7] -0.039 | [8] 0.011 | [9] -0.012

MT-ND4 (UniProt P03905)
inactive: erlotinib 0.152 | [1] -0.077 | [2] 0.053 | [3] -0.028 | [4] -0.026 | [5] 0.044 | [6] -0.009 | [7] 0.078 | [8] -0.007 | [9] -0.036

MVD (UniProt P53602)
inactive: erlotinib 0.004 | [1] 0.05 | [2] 0.044 | [3] 0.033 | [4] 0.033 | [5] -0.006 | [6] 0.028 | [7] 0.02 | [8] -0.046 | [9] 0.079

MYH11 isoform 2 (UniProt P35749)
inactive: erlotinib 0.046 | [1] -0.081 | [2] 0.096 | [3] 0.02 | [4] 0.032 | [5] 0.018 | [6] -0.026 | [7] 0.036 | [8] -0.046 | [9] 0.028

MTRR isoform 1 (UniProt Q9UBK8)
inactive: erlotinib 0.046 | [1] 0.11 | [2] -0.15 | [3] -0.001 | [4] 0.129 | [5] 0.003 | [6] 0.002 | [7] 0.032 | [8] 0.083 | [9] 0.014

MTG1 (UniProt Q9BT17)
inactive: erlotinib 0.025 | [1] 0.024 | [2] -0.103 | [3] 0.041 | [4] -0.05 | [5] -0.044 | [6] 0.136 | [7] 0.05 | [8] -0.037 | [9] -0.077

MT-CYB (UniProt P00156)
inactive: erlotinib -0.102 | [1] 0.013 | [2] -0.271 | [3] 0.116 | [4] -0.016 | [5] 0.08 | [6] -0.04 | [7] 0.038 | [8] -0.117 | [9] 0.094

MYL6B (UniProt P14649)
inactive: erlotinib -0.053 | [1] -0.029 | [2] 0.035 | [3] 0.053 | [4] 0.004 | [5] 0.035 | [6] -0.055 | [7] -0.044 | [8] 0.007 | [9] -0.029

MRPS36 (UniProt P82909)
inactive: erlotinib 0.064 | [1] -0.016 | [2] 0.038 | [3] -0.047 | [4] -0.067 | [5] 0.013 | [6] -0.006 | [7] -0.013 | [8] -0.052 | [9] -0.039

MT-ND5 (UniProt P03915)
inactive: erlotinib 0.04 | [1] -0.011 | [2] -0.019 | [3] 0.04 | [4] 0.016 | [5] 0.067 | [6] 0.011 | [7] -0.022 | [8] -0.026 | [9] 0.084

MYL12B (UniProt O14950)
inactive: erlotinib 0.016 | [1] 0.091 | [2] 0.02 | [3] 0.006 | [4] -0.072 | [5] -0.019 | [6] 0.157 | [7] 0.023 | [8] -0.045 | [9] 0.005

MTIF3 (UniProt Q9H2K0)
inactive: erlotinib -0.002 | [1] -0.161 | [2] -0.076 | [3] 0.157 | [4] -0.028 | [5] 0.031 | [7] -0.041

MTRF1L (UniProt Q9UGC7)
inactive: erlotinib 0.038 | [1] 0.02 | [2] -0.099 | [3] -0.036 | [4] -0.007 | [5] 0.007 | [6] -0.01 | [7] 0.01 | [8] 0.073 | [9] 0.152

Looked up one by one from the list above, 2 records:
MTIF3 (UniProt Q9H2K0)
inactive: erlotinib -0.002 | [1] -0.161 | [2] -0.076 | [3] 0.157 | [4] -0.028 | [5] 0.031 | [7] -0.041

MRPS36 (UniProt P82909)
inactive: erlotinib 0.064 | [1] -0.016 | [2] 0.038 | [3] -0.047 | [4] -0.067 | [5] 0.013 | [6] -0.006 | [7] -0.013 | [8] -0.052 | [9] -0.039

Carrying on.

MRPS16 (UniProt Q9Y3D3)
inactive: erlotinib -0.126 | [1] 0 | [2] -0.025 | [3] 0.159 | [4] 0.014 | [5] 0.079 | [6] 0.117 | [7] 0.044 | [8] -0.085 | [9] -0.097

MTHFD1 (UniProt P11586)
inactive: erlotinib 0.06 | [1] 0.058 | [2] 0.074 | [3] -0.019 | [4] 0.019 | [5] -0.021 | [6] 0.05 | [7] 0.01 | [8] 0.013 | [9] 0.032

MTMR14 (UniProt Q8NCE2)
inactive: erlotinib -0.019 | [1] 0.009 | [2] 0.047 | [3] 0.037 | [4] 0.002 | [5] 0.009 | [6] -0.038 | [7] -0.05 | [8] -0.05 | [9] 0.028
